# Test results reported in US20240360248A1 (NANOMAB TECHNOLOGY, published 2024).
# No constants are given. Whether binding was seen depends on the method and setting. Some entries that bind do so weakly or less than the wild type. Tags and fused reporters may be left off the sequences shown.
# T1: PTK7-Fc antigen protein from mouse species (mouse) (UniProt Q8BKG3)
# T1 sequence (looked up): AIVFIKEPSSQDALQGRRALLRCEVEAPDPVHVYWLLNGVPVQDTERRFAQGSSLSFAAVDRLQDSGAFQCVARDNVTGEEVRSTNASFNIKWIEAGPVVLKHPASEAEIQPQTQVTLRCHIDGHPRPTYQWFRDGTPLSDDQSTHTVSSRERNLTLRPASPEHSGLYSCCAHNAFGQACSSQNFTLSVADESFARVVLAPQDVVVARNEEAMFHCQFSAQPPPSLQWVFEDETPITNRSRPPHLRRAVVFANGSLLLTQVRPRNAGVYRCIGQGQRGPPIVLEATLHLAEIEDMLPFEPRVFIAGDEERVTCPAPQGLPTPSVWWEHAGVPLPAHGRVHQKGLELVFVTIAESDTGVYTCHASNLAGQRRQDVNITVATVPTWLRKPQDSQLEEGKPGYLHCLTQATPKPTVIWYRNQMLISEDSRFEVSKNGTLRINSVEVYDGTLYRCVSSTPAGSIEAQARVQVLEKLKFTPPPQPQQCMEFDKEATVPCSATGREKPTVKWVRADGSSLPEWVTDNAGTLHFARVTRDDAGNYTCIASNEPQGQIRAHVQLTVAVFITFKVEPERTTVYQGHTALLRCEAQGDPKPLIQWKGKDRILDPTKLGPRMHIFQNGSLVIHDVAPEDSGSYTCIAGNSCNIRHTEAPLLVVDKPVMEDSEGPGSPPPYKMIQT
# T2: PTK7-His antigen protein from rhesus monkey species (rhesus monkey) (UniProt F7G3Z5)
# T2 sequence: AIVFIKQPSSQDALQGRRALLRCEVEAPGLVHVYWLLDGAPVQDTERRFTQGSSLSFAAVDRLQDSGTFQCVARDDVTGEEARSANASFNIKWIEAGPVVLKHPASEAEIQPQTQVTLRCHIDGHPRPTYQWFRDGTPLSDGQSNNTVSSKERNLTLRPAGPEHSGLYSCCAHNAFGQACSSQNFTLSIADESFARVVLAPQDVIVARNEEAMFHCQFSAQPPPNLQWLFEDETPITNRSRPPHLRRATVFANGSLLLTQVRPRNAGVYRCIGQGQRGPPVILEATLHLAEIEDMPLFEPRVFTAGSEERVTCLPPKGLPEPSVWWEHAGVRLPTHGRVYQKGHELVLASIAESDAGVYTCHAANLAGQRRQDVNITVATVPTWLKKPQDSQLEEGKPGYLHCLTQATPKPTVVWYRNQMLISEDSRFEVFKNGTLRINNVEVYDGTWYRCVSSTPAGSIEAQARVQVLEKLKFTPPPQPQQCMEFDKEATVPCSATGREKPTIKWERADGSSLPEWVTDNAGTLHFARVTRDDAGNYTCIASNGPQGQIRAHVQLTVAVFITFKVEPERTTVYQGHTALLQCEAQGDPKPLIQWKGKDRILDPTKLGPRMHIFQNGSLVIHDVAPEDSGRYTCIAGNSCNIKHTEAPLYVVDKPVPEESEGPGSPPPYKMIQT
# What was measured:
# [1] = biological target: T1, PTK7-Fc antigen protein from mouse species (mouse); test: ELISA on coated antigen
# [2] = biological target: T2, PTK7-His antigen protein from rhesus monkey species (rhesus monkey); test: ELISA on coated antigen
Binder,binding [1],binding [2]
"MY2132-4-22 (VHH, Camel VHH expressed in E. coli WK6 and purified on a nickel column; also called MY2132-4-22 VHH; anti-PTK7 single domain antibody) VHH: QVQLQESGGGSVQAGGSLRLSCTASGFTFDDYDMVWYRQAPGNEYEWLSTVSRGGNLYYADSVKGRFTISRDNAKNTVYLNMSRVKPEDTAVYYCAADLRSVPSTYRARTCRGRYCRDYWGQGTQVTVSS",binds,binds
"MY2132-5-51 (VHH, Camel VHH expressed in E. coli WK6 and purified on a nickel column; also called MY2132-5-51 VHH; anti-PTK7 single domain antibody) VHH: QVQLQESGGGLVQPGGSLTLACAASGFAFSSYAMRWVRQAPGKGLEGVSSISAGGDETYYADFAKGRFTISRDNAKNTLYLQLNSLKTEDTAMYYCAKGDRNSPRYSSWPITPVGQGTQVTVSS",,binds
